From the supplement of paper PMC8728848
The list shows a part of the results.

How the values were obtained:
Experiment in all cases: glycan array binding signal (z-score within array); higher = stronger binding
Conditions in all cases: glycan notation: IUPAC condensed, linker removed
[1] = molecular target: Fuc(a1-2)Gal6S(b1-3)GlcNAc6S
Summary of the method: (§1)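 Arrays were curated from the Consortium for Functional Glycomics database, 3228 in total, and kept only where the protein sequence was available. Binding is expressed as a within-array Z-score. This score was averaged across arrays of the same protein sequence at different concentrations or buffers and across linkers, and negative values can be read as non-binding.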

Fuc(a1-2)Gal6S(b1-4)Glc = molecular target: Fuc(a1-2)Gal6S(b1-4)Glc
Summary of the method: as §1

[2] = molecular target: Fuc(a1-2)Gal6S(b1-4)Glc6S
Summary of the method: as §1

Fuc(a1-2)[Gal(a1-3)]Gal = molecular target: Fuc(a1-2)[Gal(a1-3)]Gal
Summary of the method: as §1

[3] = molecular target: Fuc(a1-2)[Gal(a1-3)]Gal(b1-3)GalNAc
Summary of the method: as §1

[4] = molecular target: Fuc(a1-2)[Gal(a1-3)]Gal(b1-3)GalNAc(b1-3)Gal(a1-4)Gal(b1-4)Glc
Summary of the method: as §1

[5] = molecular target: Fuc(a1-2)[Gal(a1-3)]Gal(b1-3)GlcNAc
Summary of the method: as §1

[6] = molecular target: Fuc(a1-2)[Gal(a1-3)]Gal(b1-3)GlcNAc(b1-2)Man(a1-3)[Fuc(a1-2)[Gal(a1-3)]Gal(b1-3)GlcNAc(b1-2)Man(a1-6)]Man(b1-4)GlcNAc(b1-4)GlcNAc
Summary of the method: as §1

[7] = molecular target: Fuc(a1-2)[Gal(a1-3)]Gal(b1-3)GlcNAc(b1-2)Man(a1-3)[Fuc(a1-2)[Gal(a1-3)]Gal(b1-3)GlcNAc(b1-2)Man(a1-6)]Man(b1-4)GlcNAc(b1-4)[Fuc(a1-6)]GlcNAc
Summary of the method: as §1

[8] = molecular target: Fuc(a1-2)[Gal(a1-3)]Gal(b1-3)GlcNAc(b1-3)GalNAc
Summary of the method: as §1

[9] = molecular target: Fuc(a1-2)[Gal(a1-3)]Gal(b1-3)GlcNAc(b1-6)GalNAc
Summary of the method: as §1

[10] = molecular target: Fuc(a1-2)[Gal(a1-3)]Gal(b1-4)Glc
Summary of the method: as §1

[11] = molecular target: Fuc(a1-2)[Gal(a1-3)]Gal(b1-4)GlcNAc
Summary of the method: as §1

[12] = molecular target: Fuc(a1-2)[Gal(a1-3)]Gal(b1-4)GlcNAc(b1-2)Man
Summary of the method: as §1

[13] = molecular target: Fuc(a1-2)[Gal(a1-3)]Gal(b1-4)GlcNAc(b1-2)Man(a1-3)[Fuc(a1-2)[Gal(a1-3)]Gal(b1-4)GlcNAc(b1-2)Man(a1-6)]Man(b1-4)GlcNAc(b1-4)GlcNAc
Summary of the method: as §1

[14] = molecular target: Fuc(a1-2)[Gal(a1-3)]Gal(b1-4)GlcNAc(b1-2)Man(a1-3)[Fuc(a1-2)[Gal(a1-3)]Gal(b1-4)GlcNAc(b1-2)Man(a1-6)]Man(b1-4)GlcNAc(b1-4)[Fuc(a1-6)]GlcNAc
Summary of the method: as §1

[15] = molecular target: Fuc(a1-2)[Gal(a1-3)]Gal(b1-4)GlcNAc(b1-3)GalNAc
Summary of the method: as §1

[16] = molecular target: Fuc(a1-2)[Gal(a1-3)]Gal(b1-4)GlcNAc(b1-3)[Fuc(a1-2)[Gal(a1-3)]Gal(b1-4)GlcNAc(b1-6)]GalNAc
Summary of the method: as §1

[17] = molecular target: Fuc(a1-2)[Gal(a1-3)]Gal(b1-4)GlcNAc(b1-6)GalNAc
Summary of the method: as §1

[18] = molecular target: Fuc(a1-2)[Gal(a1-3)]Gal(b1-4)[Fuc(a1-3)]Glc
Summary of the method: as §1

[19] = molecular target: Fuc(a1-2)[Gal(a1-3)]Gal(b1-4)[Fuc(a1-3)]GlcNAc
Summary of the method: as §1

[20] = molecular target: Fuc(a1-2)[Gal(a1-3)]Gal(b1-4)[Fuc(a1-3)]GlcNAc(b1-3)GalNAc
Summary of the method: as §1

[21] = molecular target: Fuc(a1-2)[Gal(a1-4)]Gal(b1-4)GlcNAc
Summary of the method: as §1

[22] = molecular target: Fuc(a1-2)[GalNAc(a1-3)]Gal
Summary of the method: as §1

[23] = molecular target: Fuc(a1-2)[GalNAc(a1-3)]Gal(b1-3)GalNAc(a1-3)[Fuc(a1-2)]Gal(b1-4)GlcNAc
Summary of the method: as §1

[24] = molecular target: Fuc(a1-2)[GalNAc(a1-3)]Gal(b1-3)GalNAc(b1-3)Gal(a1-4)Gal(b1-4)Glc
Summary of the method: as §1

[25] = molecular target: Fuc(a1-2)[GalNAc(a1-3)]Gal(b1-3)GlcNAc
Summary of the method: as §1

[26] = molecular target: Fuc(a1-2)[GalNAc(a1-3)]Gal(b1-3)GlcNAc(b1-2)Man(a1-3)[Fuc(a1-2)[GalNAc(a1-3)]Gal(b1-3)GlcNAc(b1-2)Man(a1-6)]Man(b1-4)GlcNAc(b1-4)GlcNAc
Summary of the method: as §1

[27] = molecular target: Fuc(a1-2)[GalNAc(a1-3)]Gal(b1-3)GlcNAc(b1-2)Man(a1-3)[Fuc(a1-2)[GalNAc(a1-3)]Gal(b1-3)GlcNAc(b1-2)Man(a1-6)]Man(b1-4)GlcNAc(b1-4)[Fuc(a1-6)]GlcNAc
Summary of the method: as §1

[28] = molecular target: Fuc(a1-2)[GalNAc(a1-3)]Gal(b1-3)GlcNAc(b1-3)GalNAc
Summary of the method: as §1

[29] = molecular target: Fuc(a1-2)[GalNAc(a1-3)]Gal(b1-3)GlcNAc(b1-6)GalNAc
Summary of the method: as §1

[30] = molecular target: Fuc(a1-2)[GalNAc(a1-3)]Gal(b1-4)Glc
Summary of the method: as §1

[31] = molecular target: Fuc(a1-2)[GalNAc(a1-3)]Gal(b1-4)GlcNAc
Summary of the method: as §1

[32] = molecular target: Fuc(a1-2)[GalNAc(a1-3)]Gal(b1-4)GlcNAc(b1-2)Man
Summary of the method: as §1

[33] = molecular target: Fuc(a1-2)[GalNAc(a1-3)]Gal(b1-4)GlcNAc(b1-2)Man(a1-3)[Fuc(a1-2)[GalNAc(a1-3)]Gal(b1-4)GlcNAc(b1-2)Man(a1-6)]Man(b1-4)GlcNAc(b1-4)GlcNAc
Summary of the method: as §1

[34] = molecular target: Fuc(a1-2)[GalNAc(a1-3)]Gal(b1-4)GlcNAc(b1-2)Man(a1-3)[Fuc(a1-2)[GalNAc(a1-3)]Gal(b1-4)GlcNAc(b1-2)Man(a1-6)]Man(b1-4)GlcNAc(b1-4)[Fuc(a1-6)]GlcNAc
Summary of the method: as §1

[35] = molecular target: Fuc(a1-2)[GalNAc(a1-3)]Gal(b1-4)GlcNAc(b1-3)Gal(b1-4)GlcNAc
Summary of the method: as §1

[36] = molecular target: Fuc(a1-2)[GalNAc(a1-3)]Gal(b1-4)GlcNAc(b1-3)Gal(b1-4)GlcNAc(b1-3)Gal(b1-4)GlcNAc
Summary of the method: as §1

[37] = molecular target: Fuc(a1-2)[GalNAc(a1-3)]Gal(b1-4)GlcNAc(b1-3)GalNAc
Summary of the method: as §1

[38] = molecular target: Fuc(a1-2)[GalNAc(a1-3)]Gal(b1-4)GlcNAc(b1-3)[Fuc(a1-2)[GalNAc(a1-3)]Gal(b1-4)GlcNAc(b1-6)]GalNAc
Summary of the method: as §1

[39] = molecular target: Fuc(a1-2)[GalNAc(a1-3)]Gal(b1-4)GlcNAc(b1-6)GalNAc
Summary of the method: as §1

[40] = molecular target: Fuc(a1-2)[GalNAc(a1-3)]Gal(b1-4)[Fuc(a1-3)]GlcNAc
Summary of the method: as §1

[41] = molecular target: Fuc(a1-2)[GalNAc(a1-3)]Gal(b1-4)[Fuc(a1-3)]GlcNAc(b1-3)GalNAc
Summary of the method: as §1

[42] = molecular target: Fuc(a1-2)[GalNAc(a1-4)]Gal(b1-4)GlcNAc
Summary of the method: as §1

[43] = molecular target: Fuc(a1-2)[GalNAc(b1-3)]Gal
Summary of the method: as §1

B1: GS13599A-bth-520-23-520 (Bacteroides thetaiotaomicron) (protein)
chain: SEDTMDRINKDHDHTTSVASRFILADVITSTAFSNASGDINTYASSYIEYEVGVDNQLYYAEVRENEPSSSSTFNNSWNGIYSSLKNARIIIDQCGEGGRDHGNDVTRGMAEVMAAYNCALIADFFGDAPCSQAALVDEKGSPVYMTPKMDTQQEIYTQIISYLDDAIANLQKEDLADVTEQDFLYAGDADKWLKFAYGLKARYTMRLINRSSNKSADYEKVLDYVSKSFTSADDQAAFDIYDSNNINPFYGFYNSRAGFGASTSLGTKLLAYNDPRANRAFFTPIVDKKRSQVAANDPSLVPAPNGSPDQSTSKYGISAFVYAKTAPTLLMSYHELMFLKAEALCRLNRDAEDALKEAVVAGLLNAENSISIAIKELGSGLNTNSSEVITETSAGKYFDDVVKAKYAANPLQETMIQKYLAMWGASGEATETYNDFRRMKGLNENFITLTNPNNSSKFPLRYPYGNSDTAANPEVKAAYGNGDYVYSEPVWWAGGSR
glycan array binding signal (z-score) [1]: 0.036 | glycan array binding signal (z-score) (Fuc(a1-2)Gal6S(b1-4)Glc): -0.385 | glycan array binding signal (z-score) [2]: -0.124 | glycan array binding signal (z-score) (Fuc(a1-2)[Gal(a1-3)]Gal): 0.757 | glycan array binding signal (z-score) [3]: 0.632 | glycan array binding signal (z-score) [4]: -0.375 | glycan array binding signal (z-score) [5]: -0.4 | glycan array binding signal (z-score) [6]: -0.466 | glycan array binding signal (z-score) [7]: 0.995 | glycan array binding signal (z-score) [8]: -0.891 | glycan array binding signal (z-score) [9]: -0.055 | glycan array binding signal (z-score) [10]: -0.349 | glycan array binding signal (z-score) [11]: -1.5 | glycan array binding signal (z-score) [12]: -0.234 | glycan array binding signal (z-score) [13]: 2.32 | glycan array binding signal (z-score) [14]: -0.141 | glycan array binding signal (z-score) [15]: 0.566 | glycan array binding signal (z-score) [16]: -0.073 | glycan array binding signal (z-score) [17]: -1.3 | glycan array binding signal (z-score) [18]: -0.724 | glycan array binding signal (z-score) [19]: -0.465 | glycan array binding signal (z-score) [20]: -1.29 | glycan array binding signal (z-score) [21]: -0.508 | glycan array binding signal (z-score) [22]: -0.356 | glycan array binding signal (z-score) [23]: -1.28 | glycan array binding signal (z-score) [24]: -0.294 | glycan array binding signal (z-score) [25]: 0.702 | glycan array binding signal (z-score) [26]: 0.224 | glycan array binding signal (z-score) [27]: 0.302 | glycan array binding signal (z-score) [28]: 0.509 | glycan array binding signal (z-score) [29]: -0.324 | glycan array binding signal (z-score) [30]: 1.43 | glycan array binding signal (z-score) [31]: -0.764 | glycan array binding signal (z-score) [32]: -0.507 | glycan array binding signal (z-score) [33]: 1.28 | glycan array binding signal (z-score) [34]: -0.373 | glycan array binding signal (z-score) [35]: -0.202 | glycan array binding signal (z-score) [36]: 0.709 | glycan array binding signal (z-score) [37]: -0.581 | glycan array binding signal (z-score) [38]: 0.21 | glycan array binding signal (z-score) [39]: -1.38 | glycan array binding signal (z-score) [40]: 0.824 | glycan array binding signal (z-score) [41]: -0.715 | glycan array binding signal (z-score) [42]: -0.861 | glycan array binding signal (z-score) [43]: 0.033
